Test results reported in the supplement of paper PMC11006884.
Only a part is listed here, and it is no random draw. The data scatter; read single values as rough.

By UniProt entry, the sequences of proteins in these tests, tags left out. Where a name states a change or a piece, a line headed by the entry shows the natural chain unless it says otherwise.
UniProt Q8WWZ3: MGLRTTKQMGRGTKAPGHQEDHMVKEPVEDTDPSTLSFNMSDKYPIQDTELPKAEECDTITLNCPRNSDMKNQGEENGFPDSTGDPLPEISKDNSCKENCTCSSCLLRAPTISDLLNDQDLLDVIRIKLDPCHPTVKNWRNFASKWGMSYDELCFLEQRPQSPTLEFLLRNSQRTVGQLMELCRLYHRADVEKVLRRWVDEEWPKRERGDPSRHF
UniProt Q8NHU6: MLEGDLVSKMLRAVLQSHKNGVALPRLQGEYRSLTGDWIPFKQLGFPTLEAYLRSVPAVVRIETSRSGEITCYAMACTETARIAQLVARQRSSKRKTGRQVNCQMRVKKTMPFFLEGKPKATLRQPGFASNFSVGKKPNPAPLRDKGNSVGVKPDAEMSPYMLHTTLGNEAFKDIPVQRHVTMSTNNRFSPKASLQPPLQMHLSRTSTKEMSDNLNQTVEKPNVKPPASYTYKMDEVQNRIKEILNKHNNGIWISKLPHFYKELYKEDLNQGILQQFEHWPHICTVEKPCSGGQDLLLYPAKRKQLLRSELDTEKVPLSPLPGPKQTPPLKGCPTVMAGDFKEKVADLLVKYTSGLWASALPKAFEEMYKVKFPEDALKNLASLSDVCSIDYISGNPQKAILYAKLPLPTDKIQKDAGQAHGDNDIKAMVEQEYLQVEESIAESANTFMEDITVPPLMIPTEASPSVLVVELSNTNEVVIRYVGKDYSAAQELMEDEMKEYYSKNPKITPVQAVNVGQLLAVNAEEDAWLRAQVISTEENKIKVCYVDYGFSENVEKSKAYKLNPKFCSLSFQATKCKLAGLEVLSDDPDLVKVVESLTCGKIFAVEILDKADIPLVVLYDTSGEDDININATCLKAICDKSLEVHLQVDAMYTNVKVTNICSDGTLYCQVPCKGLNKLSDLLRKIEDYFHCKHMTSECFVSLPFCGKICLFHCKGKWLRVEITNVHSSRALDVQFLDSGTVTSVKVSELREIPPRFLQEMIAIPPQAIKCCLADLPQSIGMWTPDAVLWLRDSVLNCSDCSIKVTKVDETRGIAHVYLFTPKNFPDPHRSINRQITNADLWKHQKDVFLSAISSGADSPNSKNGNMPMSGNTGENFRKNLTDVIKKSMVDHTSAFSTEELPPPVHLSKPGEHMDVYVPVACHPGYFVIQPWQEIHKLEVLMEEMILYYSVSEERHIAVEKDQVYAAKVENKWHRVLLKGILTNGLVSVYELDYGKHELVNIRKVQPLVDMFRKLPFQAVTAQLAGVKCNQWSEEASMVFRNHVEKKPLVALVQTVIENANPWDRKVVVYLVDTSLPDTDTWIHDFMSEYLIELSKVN
UniProt Q8N4M1: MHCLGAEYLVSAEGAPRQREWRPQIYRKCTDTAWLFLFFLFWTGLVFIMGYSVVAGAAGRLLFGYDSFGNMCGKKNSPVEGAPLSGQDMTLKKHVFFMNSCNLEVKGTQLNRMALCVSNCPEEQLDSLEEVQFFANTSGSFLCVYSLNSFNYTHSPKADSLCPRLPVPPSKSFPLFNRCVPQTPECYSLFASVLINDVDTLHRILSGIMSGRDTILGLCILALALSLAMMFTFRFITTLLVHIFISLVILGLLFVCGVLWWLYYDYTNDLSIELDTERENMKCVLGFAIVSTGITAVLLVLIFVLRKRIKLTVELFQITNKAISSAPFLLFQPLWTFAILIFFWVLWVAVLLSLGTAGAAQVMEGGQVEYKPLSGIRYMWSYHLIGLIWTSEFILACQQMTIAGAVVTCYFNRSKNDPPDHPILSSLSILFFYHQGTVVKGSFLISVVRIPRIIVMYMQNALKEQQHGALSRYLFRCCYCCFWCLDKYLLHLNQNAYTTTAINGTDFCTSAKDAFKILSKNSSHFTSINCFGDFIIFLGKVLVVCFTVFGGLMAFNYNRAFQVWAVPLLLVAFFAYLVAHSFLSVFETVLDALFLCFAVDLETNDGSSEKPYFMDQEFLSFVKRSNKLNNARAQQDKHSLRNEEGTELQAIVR
UniProt Q8TAQ2, whole entry: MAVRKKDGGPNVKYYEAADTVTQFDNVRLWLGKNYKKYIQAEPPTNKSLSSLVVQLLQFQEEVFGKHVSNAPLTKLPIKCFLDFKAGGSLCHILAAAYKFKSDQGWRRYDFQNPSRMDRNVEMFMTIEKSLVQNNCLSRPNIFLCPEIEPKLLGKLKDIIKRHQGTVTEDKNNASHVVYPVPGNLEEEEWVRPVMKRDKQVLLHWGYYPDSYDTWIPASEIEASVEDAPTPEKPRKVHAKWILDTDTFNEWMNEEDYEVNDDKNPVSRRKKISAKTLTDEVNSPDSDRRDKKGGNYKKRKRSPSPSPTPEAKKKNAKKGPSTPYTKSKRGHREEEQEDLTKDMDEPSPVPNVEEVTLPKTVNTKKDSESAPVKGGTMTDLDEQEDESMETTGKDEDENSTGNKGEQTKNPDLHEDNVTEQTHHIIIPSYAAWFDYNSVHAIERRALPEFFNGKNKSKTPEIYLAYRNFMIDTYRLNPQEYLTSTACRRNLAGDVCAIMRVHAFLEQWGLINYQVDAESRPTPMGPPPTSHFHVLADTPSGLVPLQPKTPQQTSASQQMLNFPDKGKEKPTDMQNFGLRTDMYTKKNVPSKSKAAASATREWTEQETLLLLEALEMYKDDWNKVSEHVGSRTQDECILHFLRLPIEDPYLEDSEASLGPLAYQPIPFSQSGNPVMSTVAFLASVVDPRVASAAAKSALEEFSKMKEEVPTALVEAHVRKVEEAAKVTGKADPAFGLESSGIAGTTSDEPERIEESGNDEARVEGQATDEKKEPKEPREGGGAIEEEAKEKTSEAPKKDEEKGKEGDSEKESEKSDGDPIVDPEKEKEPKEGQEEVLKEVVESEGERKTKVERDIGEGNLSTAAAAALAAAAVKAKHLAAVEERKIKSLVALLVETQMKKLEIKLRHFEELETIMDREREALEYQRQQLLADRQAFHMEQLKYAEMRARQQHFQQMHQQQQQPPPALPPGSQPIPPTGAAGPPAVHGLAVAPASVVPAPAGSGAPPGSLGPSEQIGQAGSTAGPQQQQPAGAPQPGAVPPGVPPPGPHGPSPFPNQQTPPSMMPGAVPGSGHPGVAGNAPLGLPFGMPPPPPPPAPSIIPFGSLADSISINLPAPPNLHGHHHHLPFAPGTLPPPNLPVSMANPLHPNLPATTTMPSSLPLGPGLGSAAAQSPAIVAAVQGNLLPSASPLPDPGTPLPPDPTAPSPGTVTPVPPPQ
UniProt Q8N1G4: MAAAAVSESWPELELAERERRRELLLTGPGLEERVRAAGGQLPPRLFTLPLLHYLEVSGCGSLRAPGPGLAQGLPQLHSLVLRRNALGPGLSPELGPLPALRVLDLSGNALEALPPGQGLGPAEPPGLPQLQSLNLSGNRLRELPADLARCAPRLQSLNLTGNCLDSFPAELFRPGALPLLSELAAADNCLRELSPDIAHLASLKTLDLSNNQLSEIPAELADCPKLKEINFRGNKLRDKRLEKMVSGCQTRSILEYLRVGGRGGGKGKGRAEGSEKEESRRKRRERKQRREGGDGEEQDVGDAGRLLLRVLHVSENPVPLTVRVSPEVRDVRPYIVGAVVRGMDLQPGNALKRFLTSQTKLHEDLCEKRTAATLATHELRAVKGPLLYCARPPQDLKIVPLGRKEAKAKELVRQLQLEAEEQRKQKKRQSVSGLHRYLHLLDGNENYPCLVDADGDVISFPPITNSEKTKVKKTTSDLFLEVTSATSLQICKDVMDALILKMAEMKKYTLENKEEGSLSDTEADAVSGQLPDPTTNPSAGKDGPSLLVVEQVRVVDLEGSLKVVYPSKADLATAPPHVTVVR
UniProt Q8N726, whole entry: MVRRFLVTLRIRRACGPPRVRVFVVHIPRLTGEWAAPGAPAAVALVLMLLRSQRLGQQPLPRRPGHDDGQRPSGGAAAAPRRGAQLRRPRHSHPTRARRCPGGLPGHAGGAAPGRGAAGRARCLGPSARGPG
UniProt Q8N122, whole entry, looked up: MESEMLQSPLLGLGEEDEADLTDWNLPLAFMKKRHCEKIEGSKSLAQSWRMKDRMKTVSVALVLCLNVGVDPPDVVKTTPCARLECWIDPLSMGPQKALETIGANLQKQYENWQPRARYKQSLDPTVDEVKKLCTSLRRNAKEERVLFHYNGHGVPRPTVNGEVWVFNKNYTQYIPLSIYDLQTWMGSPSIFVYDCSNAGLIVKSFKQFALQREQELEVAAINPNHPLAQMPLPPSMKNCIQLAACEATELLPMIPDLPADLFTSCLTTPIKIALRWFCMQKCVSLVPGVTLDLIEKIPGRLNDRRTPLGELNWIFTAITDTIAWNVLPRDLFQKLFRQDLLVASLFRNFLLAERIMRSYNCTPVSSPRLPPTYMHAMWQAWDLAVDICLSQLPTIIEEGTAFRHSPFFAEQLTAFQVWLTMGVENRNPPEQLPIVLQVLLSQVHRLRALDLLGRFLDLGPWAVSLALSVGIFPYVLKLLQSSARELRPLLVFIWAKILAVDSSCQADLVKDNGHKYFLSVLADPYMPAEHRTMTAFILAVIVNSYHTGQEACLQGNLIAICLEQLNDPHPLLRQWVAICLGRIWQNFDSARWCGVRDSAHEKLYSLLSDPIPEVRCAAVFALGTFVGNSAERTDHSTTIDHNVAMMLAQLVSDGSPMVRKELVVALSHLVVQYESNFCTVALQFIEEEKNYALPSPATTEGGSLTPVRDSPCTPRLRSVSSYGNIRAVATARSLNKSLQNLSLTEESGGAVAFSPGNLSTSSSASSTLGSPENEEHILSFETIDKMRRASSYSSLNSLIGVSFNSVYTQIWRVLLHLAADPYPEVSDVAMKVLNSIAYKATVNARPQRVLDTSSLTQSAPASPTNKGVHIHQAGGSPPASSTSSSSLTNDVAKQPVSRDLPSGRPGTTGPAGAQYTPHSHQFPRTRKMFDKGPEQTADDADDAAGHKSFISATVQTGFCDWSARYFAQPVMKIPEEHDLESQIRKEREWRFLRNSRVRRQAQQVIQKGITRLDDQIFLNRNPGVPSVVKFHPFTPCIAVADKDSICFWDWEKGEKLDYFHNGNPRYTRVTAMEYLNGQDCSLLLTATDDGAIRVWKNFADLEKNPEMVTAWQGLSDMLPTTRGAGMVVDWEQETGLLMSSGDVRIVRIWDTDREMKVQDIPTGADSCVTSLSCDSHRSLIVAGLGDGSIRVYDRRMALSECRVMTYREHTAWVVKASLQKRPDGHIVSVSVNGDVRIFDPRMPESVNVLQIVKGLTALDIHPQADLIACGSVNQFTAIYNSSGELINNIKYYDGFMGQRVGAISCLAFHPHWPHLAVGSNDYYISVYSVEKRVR
UniProt Q8WUB8: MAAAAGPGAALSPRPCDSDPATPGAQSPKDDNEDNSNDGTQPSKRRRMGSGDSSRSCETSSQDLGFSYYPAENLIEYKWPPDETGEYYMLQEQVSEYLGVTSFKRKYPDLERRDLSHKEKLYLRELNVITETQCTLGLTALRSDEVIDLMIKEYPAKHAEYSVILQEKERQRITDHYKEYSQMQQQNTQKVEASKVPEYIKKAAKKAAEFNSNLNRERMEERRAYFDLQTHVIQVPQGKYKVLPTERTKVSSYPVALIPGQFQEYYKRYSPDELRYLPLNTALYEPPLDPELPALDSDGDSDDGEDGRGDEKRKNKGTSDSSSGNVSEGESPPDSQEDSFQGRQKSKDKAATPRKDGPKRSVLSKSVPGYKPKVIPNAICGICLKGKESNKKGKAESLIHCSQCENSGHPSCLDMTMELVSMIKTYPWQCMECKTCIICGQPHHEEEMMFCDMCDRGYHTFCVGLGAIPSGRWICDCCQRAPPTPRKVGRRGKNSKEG
UniProt Q8WXI9: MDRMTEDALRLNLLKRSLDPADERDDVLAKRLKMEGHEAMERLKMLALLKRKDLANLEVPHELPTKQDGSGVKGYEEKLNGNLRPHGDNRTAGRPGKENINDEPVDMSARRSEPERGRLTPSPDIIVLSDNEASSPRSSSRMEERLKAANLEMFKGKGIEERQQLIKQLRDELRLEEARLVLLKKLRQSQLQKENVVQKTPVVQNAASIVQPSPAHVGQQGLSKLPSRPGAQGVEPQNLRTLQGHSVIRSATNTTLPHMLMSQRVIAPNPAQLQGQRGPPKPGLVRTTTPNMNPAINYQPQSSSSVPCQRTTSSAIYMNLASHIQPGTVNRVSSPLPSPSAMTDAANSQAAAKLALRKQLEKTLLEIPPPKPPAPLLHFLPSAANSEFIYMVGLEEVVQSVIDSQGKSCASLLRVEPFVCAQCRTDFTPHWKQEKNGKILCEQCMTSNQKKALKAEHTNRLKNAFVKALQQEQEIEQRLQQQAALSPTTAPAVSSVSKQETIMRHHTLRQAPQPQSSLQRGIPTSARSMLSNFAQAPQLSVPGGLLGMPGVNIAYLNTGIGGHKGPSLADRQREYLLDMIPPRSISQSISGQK

Compound: COC(=O)/C=C/c1ccccc1 [methyl cinnamate]
Test: log2 ratio of iodoacetamide-alkyne labeling of the cysteine site, DMSO over compound (competition); higher = stronger covalent engagement of the cysteine by the compound, active = 1 or more
Details: 500 µM; treatment time 1 h; system: HEK293T cell lysate
Procedure, shortened: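 HEK293T lysate (2 mg/mL) was treated with DMSO or electrophile (500 µM, 1 h, ambient temperature), then iodoacetamide alkyne (1 h), clicked to sCIP-TMT reagents, pooled, trypsin-digested overnight at 37 °C, streptavidin-enriched and acid-eluted. Peptides were run on Orbitrap Eclipse LC-MS/MS with FAIMS and quantified in FragPipe. The log2 competition ratio per cysteine is mean control-channel over mean compound-channel reporter intensity. Duplicate channels and three replicates were used, and cysteines quantified in only one replicate were excluded.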

log2 ratio of iodoacetamide-alkyne labeling, inactive:
UniProt Q8N163_C238 0.0185
LSM14A C85 (UniProt Q8ND56) -0.0554
MPP5 C366 (UniProt Q8N3R9) 0.216
EDARADD C154 (UniProt Q8WWZ3) -0.134
THOC2 C1064 (UniProt Q8NI27) 0.244
UniProt Q8NFC6_C686 0.588
PDCD6IP C512 (UniProt Q8WUM4) -0.0251
TDRD7 C1029 (UniProt Q8NHU6) 0.369
UniProt Q8N4M1_C3 0.375
UniProt Q8WVV9_C84 -0.252
SMARCC2 C145 (UniProt Q8TAQ2) 0.188
GPT2 C158 (UniProt Q8TD30) 0.128
NEK7 C53 (UniProt Q8TDX7) 0.0759
UniProt Q8WVT3_C160 -0.0614
PPM1E C4 (UniProt Q8WY54) 0.231
PARD3 C806 (UniProt Q8TEW0) 0.128
UniProt Q8WZA9_C504 -0.0433
NHLRC2 C716 (UniProt Q8NBF2) 0.234
ZNF687 C339 (UniProt Q8N1G0) 0.357
VPS37A C325 (UniProt Q8NEZ2) 0.186
ZNF280C C94 (UniProt Q8ND82) 0.512
DGCR8 C256 (UniProt Q8WYQ5) -0.0192
GEMIN5 C806 (UniProt Q8TEQ6) 0.293
PDCD6IP C250 (UniProt Q8WUM4) 0.214
LRRC47 C224 (UniProt Q8N1G4) 0.188
DDX51 C402 (UniProt Q8N8A6) 0.172
TTL C91 (UniProt Q8NG68) 0.0628
UniProt Q8N726_C123 0.206
SMAP2 C196 (UniProt Q8WU79) -0.000945
PPIL4 C426 (UniProt Q8WUA2) 0.13
NUP133 C700 (UniProt Q8WUM0) -0.235
PLA2G15 C355 (UniProt Q8NCC3) 0.205
RPTOR C86 (UniProt Q8N122) 0.0547
ZNF687 C91 (UniProt Q8N1G0) 0.202
PHF10 C380 (UniProt Q8WUB8) 0.16
GATAD2B C423 (UniProt Q8WXI9) 0.0732
MRPL43 C91 (UniProt Q8N983) 0.0325

Retrieved one by one from the list above:
log2 ratio of iodoacetamide-alkyne labeling, inactive:
LSM14A C85 (UniProt Q8ND56) -0.0554
EDARADD C154 (UniProt Q8WWZ3) -0.134
